From paper PMC11837708
These are yes or no findings as the source states them, for the method shown. In cells and extracts the contact can be indirect. Some binding calls cover weakened binding; strength is not graded here.

Sequences of proteins named here, by UniProt entry; tags and fusion partners are left off.
UniProt O95197: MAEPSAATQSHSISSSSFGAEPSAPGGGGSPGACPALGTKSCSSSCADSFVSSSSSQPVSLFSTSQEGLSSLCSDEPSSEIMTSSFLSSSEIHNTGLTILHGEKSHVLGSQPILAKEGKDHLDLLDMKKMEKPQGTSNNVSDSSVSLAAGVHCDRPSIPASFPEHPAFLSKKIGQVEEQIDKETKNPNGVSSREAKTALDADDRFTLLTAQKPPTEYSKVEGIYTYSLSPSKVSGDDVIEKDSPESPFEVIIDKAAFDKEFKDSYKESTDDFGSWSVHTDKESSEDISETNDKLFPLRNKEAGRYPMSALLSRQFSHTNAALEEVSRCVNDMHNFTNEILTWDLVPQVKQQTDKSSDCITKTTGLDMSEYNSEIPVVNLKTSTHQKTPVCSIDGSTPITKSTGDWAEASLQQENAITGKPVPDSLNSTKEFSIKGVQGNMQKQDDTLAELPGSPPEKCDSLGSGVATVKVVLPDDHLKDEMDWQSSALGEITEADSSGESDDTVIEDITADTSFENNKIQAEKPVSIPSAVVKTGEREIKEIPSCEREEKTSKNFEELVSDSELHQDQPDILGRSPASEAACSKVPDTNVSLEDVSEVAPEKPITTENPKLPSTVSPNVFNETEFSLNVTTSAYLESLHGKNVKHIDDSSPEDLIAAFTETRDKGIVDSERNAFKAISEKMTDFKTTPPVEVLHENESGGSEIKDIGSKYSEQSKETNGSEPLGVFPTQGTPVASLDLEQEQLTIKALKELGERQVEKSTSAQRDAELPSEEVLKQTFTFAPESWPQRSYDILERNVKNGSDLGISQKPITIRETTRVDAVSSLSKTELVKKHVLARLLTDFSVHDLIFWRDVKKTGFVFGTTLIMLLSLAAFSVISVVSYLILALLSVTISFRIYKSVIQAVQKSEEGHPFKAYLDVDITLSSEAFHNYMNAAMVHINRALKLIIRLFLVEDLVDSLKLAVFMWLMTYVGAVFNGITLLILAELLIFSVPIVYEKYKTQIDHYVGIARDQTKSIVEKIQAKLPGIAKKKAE

Biological target: MYC-RTN3 (Wild type RTN3 CDS with C-terminal MYC-tag and Flag-tag in pEnter) (UniProt O95197)
Assay: co-IP; lysate of primary cultured lung fibroblasts transfected with MYC-RTN3 plasmids; Protein A + G beads, 12 h; Western blot

- binding: binds
B1: CRTH2 (chemoattractant receptor-homologous molecule expressed on T-helper type 2 cells) (receptor, UniProt Q9Z2J6 1-382)
chain: MANVTLKPLCPLLEEMVQLPNHSNSSLRYIDHVSVLLHGLASLLGLVENGLILFVVGCRMRQTVVTTWVLHLALSDLLAAASLPFFTYFLAVGHSWELGTTFCKLHSSVFFLNMFASGFLLSAISLDRCLQVVRPVWAQNHRTVAVAHRVCLMLWALAVLNTIPYFVFRDTIPRLDGRIMCYYNLLLWNPGPDRDTTCDYRQKALAVSKFLLAFMVPLAIIASSHVAVSLRLHHRGRQRTGRFVRLVAAIVVAFVLCWGPYHIFSLLEARAHSVTTLRQLASRGLPFVTSLAFFNSVVNPLLYVFTCPDMLYKLRRSLRAVLESVLVEDSDQSGGLRNRRRRASSTATPASTLLLADRIPQLRPTRLIGWMRRGSAEVPQRV
